Assay results as given in ChEMBL document CHEMBL1144842, “Design and campaign synthesis of piperidine- and thiazole-based histone deacetylase inhibitors” (Bioorg Med Chem Lett, 2008).

The chains behind the UniProt entries cited, without tags or fusion partners.
UniProt P10635, whole entry: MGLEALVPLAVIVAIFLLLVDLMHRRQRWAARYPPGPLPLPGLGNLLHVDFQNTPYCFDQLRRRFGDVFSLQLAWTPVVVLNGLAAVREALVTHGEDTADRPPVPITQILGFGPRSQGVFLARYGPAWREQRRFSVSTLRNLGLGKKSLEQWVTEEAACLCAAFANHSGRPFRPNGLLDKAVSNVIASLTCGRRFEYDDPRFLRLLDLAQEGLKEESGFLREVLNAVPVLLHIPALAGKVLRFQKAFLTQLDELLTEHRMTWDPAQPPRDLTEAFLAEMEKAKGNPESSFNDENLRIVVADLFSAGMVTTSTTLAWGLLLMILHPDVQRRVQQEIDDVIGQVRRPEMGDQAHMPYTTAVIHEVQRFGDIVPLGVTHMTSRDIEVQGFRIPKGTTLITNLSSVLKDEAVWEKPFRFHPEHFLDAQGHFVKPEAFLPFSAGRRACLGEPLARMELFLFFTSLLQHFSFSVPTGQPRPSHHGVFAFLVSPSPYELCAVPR
UniProt P33261, whole entry: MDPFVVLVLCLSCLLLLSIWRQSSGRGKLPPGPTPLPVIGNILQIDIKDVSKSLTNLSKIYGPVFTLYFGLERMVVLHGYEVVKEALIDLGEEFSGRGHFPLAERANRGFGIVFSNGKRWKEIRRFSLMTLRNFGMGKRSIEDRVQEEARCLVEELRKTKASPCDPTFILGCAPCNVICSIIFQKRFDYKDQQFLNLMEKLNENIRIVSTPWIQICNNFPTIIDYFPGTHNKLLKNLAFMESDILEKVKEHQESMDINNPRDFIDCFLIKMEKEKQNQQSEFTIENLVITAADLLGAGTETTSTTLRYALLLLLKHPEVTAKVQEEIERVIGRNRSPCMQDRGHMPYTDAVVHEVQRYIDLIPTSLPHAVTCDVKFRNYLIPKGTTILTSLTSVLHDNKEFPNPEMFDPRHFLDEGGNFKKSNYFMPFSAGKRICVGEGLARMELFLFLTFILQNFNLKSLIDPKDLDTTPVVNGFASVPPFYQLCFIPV
UniProt P11712, whole entry: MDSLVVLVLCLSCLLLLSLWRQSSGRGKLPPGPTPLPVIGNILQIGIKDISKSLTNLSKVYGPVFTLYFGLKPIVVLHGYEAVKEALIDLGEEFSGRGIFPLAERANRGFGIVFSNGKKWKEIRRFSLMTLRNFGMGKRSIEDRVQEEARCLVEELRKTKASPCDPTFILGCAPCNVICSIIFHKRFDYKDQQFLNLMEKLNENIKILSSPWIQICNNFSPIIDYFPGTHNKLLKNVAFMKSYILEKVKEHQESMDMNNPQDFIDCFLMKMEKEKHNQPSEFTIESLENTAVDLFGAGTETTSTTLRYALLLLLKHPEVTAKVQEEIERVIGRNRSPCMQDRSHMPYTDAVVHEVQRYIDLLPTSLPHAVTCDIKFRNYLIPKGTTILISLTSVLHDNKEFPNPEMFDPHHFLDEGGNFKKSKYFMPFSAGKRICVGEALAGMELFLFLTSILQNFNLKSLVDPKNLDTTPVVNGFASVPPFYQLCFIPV
UniProt P08684, whole entry: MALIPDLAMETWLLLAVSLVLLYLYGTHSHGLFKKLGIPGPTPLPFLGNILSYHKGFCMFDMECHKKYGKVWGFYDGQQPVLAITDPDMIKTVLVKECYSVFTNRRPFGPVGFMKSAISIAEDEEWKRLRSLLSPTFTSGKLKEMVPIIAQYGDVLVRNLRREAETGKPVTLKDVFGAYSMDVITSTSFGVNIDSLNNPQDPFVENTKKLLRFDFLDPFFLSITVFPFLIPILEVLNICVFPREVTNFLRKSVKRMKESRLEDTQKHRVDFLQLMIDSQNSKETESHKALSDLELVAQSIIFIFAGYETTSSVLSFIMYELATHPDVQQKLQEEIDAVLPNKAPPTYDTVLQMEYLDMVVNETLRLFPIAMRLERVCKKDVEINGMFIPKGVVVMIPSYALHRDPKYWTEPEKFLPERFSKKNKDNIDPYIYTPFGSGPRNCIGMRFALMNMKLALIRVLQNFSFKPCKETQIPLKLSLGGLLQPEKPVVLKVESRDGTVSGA

Columns and labels:
[1] = Lipophilicity, log D of the compound; settings: octanol/water
Cytochrome P450 2D6 = Cytochrome P450 2D6 (Homo sapiens, UniProt P10635)
Cytochrome P450 2C19 = Cytochrome P450 2C19 (Homo sapiens, UniProt P33261)
Cytochrome P450 2C9 = Cytochrome P450 2C9 (Homo sapiens, UniProt P11712)
Cytochrome P450 3A4 = Cytochrome P450 3A4 (Homo sapiens, UniProt P08684)

Compound `CCNC(=O)c1ccc(CN2CCC(c3ccc(C(=O)Nc4ccccc4N)cc3)CC2)cc1` has a logD [1] of 2.28, an IC50 (Cytochrome P450 2D6) greater than 10 µM and an IC50 (Cytochrome P450 2C19) greater than 10 µM. The IC50 (Cytochrome P450 2C9) was greater than 10 µM and the IC50 (Cytochrome P450 3A4) was greater than 10 µM.
